Reference: publication doi:10.1101/2024.09.30.615192
Results are given in words; binding and its absence hold for the method and conditions named. Binding seen in cells or lysates may run through a third protein. A yes stands for co-enrichment or nearness to the bait. Other partners may have been found.

The chains behind the UniProt entries cited, without tags or fusion partners. Residues count along the entry.
UniProt P48764, residues 26-834: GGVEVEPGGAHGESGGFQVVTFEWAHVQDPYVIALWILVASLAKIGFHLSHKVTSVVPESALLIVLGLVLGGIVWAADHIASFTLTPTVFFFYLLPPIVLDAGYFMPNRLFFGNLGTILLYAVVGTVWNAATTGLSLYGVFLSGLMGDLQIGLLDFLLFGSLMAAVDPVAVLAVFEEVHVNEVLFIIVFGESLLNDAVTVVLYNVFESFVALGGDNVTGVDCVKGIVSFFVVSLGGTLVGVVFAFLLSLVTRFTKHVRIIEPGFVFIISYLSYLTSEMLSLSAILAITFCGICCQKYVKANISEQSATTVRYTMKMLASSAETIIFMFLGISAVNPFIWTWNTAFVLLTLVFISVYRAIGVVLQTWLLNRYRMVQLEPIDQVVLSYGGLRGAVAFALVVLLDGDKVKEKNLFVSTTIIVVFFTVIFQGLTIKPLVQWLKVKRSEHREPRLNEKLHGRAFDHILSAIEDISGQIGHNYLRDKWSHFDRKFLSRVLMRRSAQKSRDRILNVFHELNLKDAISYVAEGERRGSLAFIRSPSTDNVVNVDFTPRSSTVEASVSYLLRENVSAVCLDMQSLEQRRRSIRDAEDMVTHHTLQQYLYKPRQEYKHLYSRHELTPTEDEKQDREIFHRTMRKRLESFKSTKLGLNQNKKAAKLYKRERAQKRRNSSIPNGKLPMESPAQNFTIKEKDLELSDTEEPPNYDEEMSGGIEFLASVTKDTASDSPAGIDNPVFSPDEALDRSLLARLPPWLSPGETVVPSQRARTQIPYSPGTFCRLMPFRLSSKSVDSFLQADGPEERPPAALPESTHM

Tests used:
Experiment in all cases: affinity purification with mass spectrometry
SLC9A7 (human) = molecular target: T1, SLC9A7 (human) (UniProt Q96T83)
T1 sequence: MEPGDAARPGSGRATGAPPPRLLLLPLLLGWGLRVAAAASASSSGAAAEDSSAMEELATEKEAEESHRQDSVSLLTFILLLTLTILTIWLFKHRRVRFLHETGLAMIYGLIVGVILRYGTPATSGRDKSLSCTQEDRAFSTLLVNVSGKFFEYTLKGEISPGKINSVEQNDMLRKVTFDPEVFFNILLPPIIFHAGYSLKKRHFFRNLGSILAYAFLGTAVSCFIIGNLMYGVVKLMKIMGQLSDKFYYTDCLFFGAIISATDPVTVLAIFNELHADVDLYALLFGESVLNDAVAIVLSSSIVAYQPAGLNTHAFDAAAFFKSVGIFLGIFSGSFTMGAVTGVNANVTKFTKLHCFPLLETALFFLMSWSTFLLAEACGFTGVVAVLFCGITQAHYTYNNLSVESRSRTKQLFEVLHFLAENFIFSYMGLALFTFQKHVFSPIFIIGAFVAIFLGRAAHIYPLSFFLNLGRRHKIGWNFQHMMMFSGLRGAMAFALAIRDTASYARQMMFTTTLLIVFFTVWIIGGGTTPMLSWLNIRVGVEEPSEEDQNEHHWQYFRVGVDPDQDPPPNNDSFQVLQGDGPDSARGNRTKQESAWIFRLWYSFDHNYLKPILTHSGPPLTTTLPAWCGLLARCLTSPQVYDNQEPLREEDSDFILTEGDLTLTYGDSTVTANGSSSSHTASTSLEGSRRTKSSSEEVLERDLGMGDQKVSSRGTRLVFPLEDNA

SLC9A8 (human) = molecular target: T2, SLC9A8 (human) (UniProt Q9Y2E8)
T2 sequence: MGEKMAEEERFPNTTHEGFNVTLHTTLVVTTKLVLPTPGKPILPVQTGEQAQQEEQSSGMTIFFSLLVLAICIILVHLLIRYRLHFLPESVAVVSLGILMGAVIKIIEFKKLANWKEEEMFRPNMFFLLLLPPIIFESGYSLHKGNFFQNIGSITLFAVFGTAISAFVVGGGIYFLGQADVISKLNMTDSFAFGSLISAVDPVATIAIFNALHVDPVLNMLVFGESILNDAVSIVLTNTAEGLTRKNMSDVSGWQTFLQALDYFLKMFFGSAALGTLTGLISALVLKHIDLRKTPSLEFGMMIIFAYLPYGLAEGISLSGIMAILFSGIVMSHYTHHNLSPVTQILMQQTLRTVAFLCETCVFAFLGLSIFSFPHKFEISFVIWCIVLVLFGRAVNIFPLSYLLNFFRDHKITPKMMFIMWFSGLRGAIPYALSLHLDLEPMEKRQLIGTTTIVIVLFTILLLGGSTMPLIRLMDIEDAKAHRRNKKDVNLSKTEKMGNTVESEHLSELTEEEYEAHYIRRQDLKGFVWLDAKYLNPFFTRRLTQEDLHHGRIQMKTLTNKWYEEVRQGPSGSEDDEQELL

SLC9A3 (human) = SLC9A3 (human) (UniProt P48764)
SLC9A4 (human) = molecular target: T3, SLC9A4 (human) (UniProt Q6AI14)
T3 sequence: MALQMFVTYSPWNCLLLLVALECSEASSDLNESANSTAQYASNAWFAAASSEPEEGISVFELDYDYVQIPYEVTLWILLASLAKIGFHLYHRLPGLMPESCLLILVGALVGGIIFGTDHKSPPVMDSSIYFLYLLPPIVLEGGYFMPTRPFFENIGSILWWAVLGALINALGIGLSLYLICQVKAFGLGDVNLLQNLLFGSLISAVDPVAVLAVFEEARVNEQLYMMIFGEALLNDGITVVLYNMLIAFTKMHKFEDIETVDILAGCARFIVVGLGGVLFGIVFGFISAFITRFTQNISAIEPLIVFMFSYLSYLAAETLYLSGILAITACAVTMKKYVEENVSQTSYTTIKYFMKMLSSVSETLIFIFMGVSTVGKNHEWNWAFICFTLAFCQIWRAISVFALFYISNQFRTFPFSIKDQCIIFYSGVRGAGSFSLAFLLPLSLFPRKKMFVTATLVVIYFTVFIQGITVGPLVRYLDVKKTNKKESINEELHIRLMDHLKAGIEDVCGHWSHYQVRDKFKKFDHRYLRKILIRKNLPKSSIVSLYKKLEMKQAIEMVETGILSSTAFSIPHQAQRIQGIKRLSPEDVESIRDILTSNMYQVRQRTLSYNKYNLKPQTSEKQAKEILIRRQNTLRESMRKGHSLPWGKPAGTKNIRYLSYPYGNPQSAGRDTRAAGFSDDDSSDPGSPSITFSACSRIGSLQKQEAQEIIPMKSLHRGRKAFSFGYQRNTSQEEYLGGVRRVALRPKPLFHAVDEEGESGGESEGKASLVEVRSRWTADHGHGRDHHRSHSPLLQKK

Measured: binding

B1: calcium-binding protein CHP1 (protein, UniProt Q99653 1-195)
chain: MGSRASTLLRDEELEEIKKETGFSHSQITRLYSRFTSLDKGENGTLSREDFQRIPELAINPLGDRIINAFFPEGEDQVNFRGFMRTLAHFRPIEDNEKSKDVNGPEPLNSRSNKLHFAFRLYDLDKDEKISRDELLQVLRMMVGVNISDEQLGSIADRTIQEADQDGDSAISFTEFVKVLEKVDVEQKMSIRFLH
binds: all assays above
